Measurements reported in US10383837B2, “Compositions and methods for modulating metabolic pathways” (NuSirt Sciences, Inc., priority 2011, dated 2019).
For at least one compound, name, drawing or mass did not settle the structure.

Test system: c2c12 myotubes
Assay: Fatty acid oxidation (FAO) in c2c12 myotubes, Example 1
Assay type: cell-based
Details: 20 nM rapamycin
Protocol: We have shown that catabolic systems are also stimulated to fuel this process, resulting in increased mitochondrial biogenesis and fatty acid oxidation (FAO). To address the mechanism of this effect, we first determined its mTOR-dependence by assessing leucine stimulation of FAO in the presence and absence of 20 nM rapamycin; although rapamycin inhibited FAO in c2c12 myotubes, the degree of leucine stimulation was preserved (˜50%, p<0.03; FIG. 1).
We next investigated the role of intact leucine (0-0.5 mM) vs. its metabolites, α-ketoisocaproic acid (KIC) (0-0.5 mM) and HMB (0-50 μM). […] Both leucine and HMB increased myotube mitochondrial biogenesis (assessed fluorometrically via NAO binding) by ˜50%, (p<0.005, FIG. 3).

CO[C@H]1C[C@@H]2CC[C@@H](C)[C@@](O)(O2)C(=O)C(=O)N2CCCC[C@H]2C(=O)O[C@H]([C@H](C)C[C@@H]2CC[C@@H](O)[C@H](OC)C2)CC(=O)[C@H](C)/C=C(\C)[C@@H](O)[C@@H](OC)C(=O)[C@H](C)C[C@H](C)/C=C/C=C/C=C/1C [rapamycin, reference compound] was tested, and the “effect of rapamycin on FAO” value was “inhibited FAO”.
